Out of some 140,000 compounds screened, about 4,300 (3.1%) were called active. Inconclusive means that the source gave no clear call. Such entries were picked first, then a sample of the others.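 How the source made its calls: active means readout at or below -70, meaning at least 70% loss of cells showing the perinucleolar compartment, a nuclear body marking cancer cells; inconclusive means readout between -30 and a set limit; inactive means the rest.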
test: High Content Assay for Compounds that inhibit the Assembly of the Perinucleolar Compartment; details: PC3M PTB-GFP, PNC prevalence imaging, 16 h; at 10 µM; stronger effect = lower value;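 further: plate controls were DMSO wells for no effect and camptothecin positive control wells for full effect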
Summary of the method: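 PC3M cells stably expressing PTB-GFP, 750–1000 cells/well, treated 16 h at 37 °C with compound (23 nl of library stock), in duplicate. After paraformaldehyde fixation and Hoechst stain, imaged at 20x; PNC prevalence scored by image analysis.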

Structure (SMILES) | activity change (PNC), negative = inhibition
Cn1cnnc1SC1c2cccc3cccc(c23)C1NS(=O)(=O)c1ccccc1 (configuration not stated) | inconclusive: -51.5%
CCn1cc(C(=O)OCC(=O)Nc2cccc(S(=O)(=O)N3CCOCC3)c2)c(=O)c2ccc(C)nc21 | inactive: 15.7%
COc1ccc(C(C)=O)cc1COC(=O)CNC(=O)c1cc(C)cc(C)c1 | inconclusive: -40.8%
COc1ccccc1N=Cc1nc(-c2ccccc2)oc1OC(C)=O | inconclusive: -43.2%
Cn1cccc1/C=N/n1c(-c2ccc(Cl)cc2)n[nH]c1=S | inactive: 4.61%
O=C(CN1CCN(c2ccccn2)CC1)N(c1ccccc1)c1ccc2ccccc2c1 | inconclusive: -35.1%
CCOc1ccc(-c2cc(C(=O)N3CCN(c4ccccn4)CC3)c3ccccc3n2)cc1 | inconclusive: -50.5%
O=S(=O)(c1cccc(-c2nn3c(-c4ccncc4)nnc3s2)c1)N1CCOCC1 | inconclusive: -40.5%
O=c1cc(-c2ccccc2)nc(N2CCN(Cc3ccccc3)CC2)[nH]1 | inconclusive: -74.7%
CC(C)CCNC(=O)Cn1c2c(c(-c3ccccc3Cl)cc1=O)CCC2 | inconclusive: -32.1%
CC(O)(CS(=O)(=O)Cc1ccccc1)C(=O)Nc1ccc(C(F)(F)F)cc1 (configuration not stated) | inconclusive: -41.3%
CCOC(=O)C1=C(SCC)c2cc3c(n2C1=O)CCCC3 | inactive: -22.6%
COc1ccc(C(=O)NC(=O)CSc2nnc(-c3ccco3)n2-c2ccccc2)cc1 | inconclusive: -31.7%
Cc1cc(C)c2oc(-c3ccc(C)c(NC(=S)NC(=O)/C=C/c4ccco4)c3)nc2c1 | inconclusive: -59.5%
COc1ccc(C2Nc3ccccc3C(=O)N2Cc2ccco2)cc1COc1ccc(NC(C)=O)cc1 (configuration not stated) | inconclusive: -34.5%
COc1ccc(NC(=O)c2ccc(Cc3ccc(C)cc3)o2)cc1 | inconclusive: -34.4%
CN(C)C(=O)CCN1CCOCC1 | inconclusive: -31.3%
COC(=O)C1=C(N)Oc2cc(C)n(Cc3ccccc3)c(=O)c2C1c1ccccc1 (configuration not stated) | inconclusive: -55.8%
COc1ccc(-c2nc3ccccc3c(=O)n2CCOc2ccccc2C)cc1 | active: -121%

Structure (SMILES) | activity change (PNC), negative = inhibition
COc1ccc(Cl)cc1NC(=O)CCN1CCN(C)CC1 | inactive: 5.38%
CCc1ccc(N2CC(C(=O)OCC(=O)NC3CCS(=O)(=O)C3)CC2=O)cc1 (configuration not stated) | active: -100%
CCC(=O)OCCCCCCOc1ccc(C(=O)O)cc1 | inconclusive: -45.3%
Cc1ccc(C)n1-n1c(C)nc2sc(-c3ccccc3)cc2c1=O | inconclusive: -47%
Cc1nn(C)c(C)c1/C=N/N=C1\CCC2C3CCc4cc(O)ccc4C3CCC12C (configuration not stated) | inconclusive: -35.5%
Cn1c(SCC(=O)NC(=O)NCc2ccco2)nnc1C(F)(F)F | inconclusive: -36.5%
Cc1cc(C)nc(SCc2ccc(C(=O)NN=C3C4CC5CC(C4)CC3C5)cc2)n1 | inactive: -24.5%
CCOC(=O)C1CCCCN1Cc1cc(Cl)ccc1O (configuration not stated) | inconclusive: -38.9%
C=CCn1c(SCC(=O)Nc2nc(C)cs2)nnc1C(NC(=O)c1ccccc1)C(C)C (configuration not stated) | inconclusive: -61.6%
O=C(/C=C/c1cccs1)Nc1cccnc1 | inconclusive: -62.2%
COCCOC(=O)c1c(C)n(C)c2ccc(OC(=O)N3CCOCC3)cc12 | inactive: 19.7%
CC(C)CCNC(=O)c1ccc(CSCc2cccc(F)c2)o1 | inactive: -2.84%
CC(/C=C/c1ccccc1)=N\Nc1nc(-c2ccccc2)cs1 | active: -85.3%
COc1ccc(OC)c(C2C3=C(COC3=O)Nc3cc4c(cc32)OCO4)c1 (configuration not stated) | inconclusive: -59.9%
CC(=O)Nc1nnc(SCc2ccccc2F)s1 | inconclusive: -44.6%
CC1CCCCN1C(=O)CSc1nc2ccsc2c(=O)n1Cc1ccccn1 (configuration not stated) | inactive: 50.2%
Cc1ccc(C=Nc2ccccc2C#N)s1 | inconclusive: -60.7%
CCCCOc1ccc(S(=O)(=O)Nc2ccc(NC(C)=O)cc2)cc1 | inconclusive: -36.2%
Cc1cccc(N(CC(O)CN(C)C)S(=O)(=O)c2ccccc2)c1 (configuration not stated) | inconclusive: -32.3%

Arranged by molar mass (low to high): some entries from above.
Structure (SMILES) | activity change (PNC), negative = inhibition
CCc1ccc(N2CC(C(=O)OCC(=O)NC3CCS(=O)(=O)C3)CC2=O)cc1 (configuration not stated) | active: -100%
CC1CCCCN1C(=O)CSc1nc2ccsc2c(=O)n1Cc1ccccn1 (configuration not stated) | inactive: 50.2%
Cc1cc(C)nc(SCc2ccc(C(=O)NN=C3C4CC5CC(C4)CC3C5)cc2)n1 | inactive: -24.5%

Further entries.

Structure (SMILES) | activity change (PNC), negative = inhibition
Cc1c(-c2ccccc2)sc(Br)c1C(=O)N1CCOCC1 | inactive: 1.37%
O=c1[nH]n2c(=O)c3c([nH]c2c1N=Nc1cccc(C(F)(F)F)c1)CCCC3 | inactive: -19.1%
O=C(Oc1oc(-c2ccco2)nc1C=Nc1ccccc1)c1ccco1 | inconclusive: -62.1%
CCCOC(=O)c1ccc(NC(=O)c2c(Cl)ccc(Cl)c2OC)cc1 | inactive: 9.52%
COc1ccc(C(=O)c2sc3nc(-c4ccccc4)ccc3c2N)cc1OC | inactive: 8.63%
COC(=O)C(O)(CC(=O)Nc1ccc(Cl)cc1F)C(F)(F)F (configuration not stated) | inconclusive: -55.8%
Cn1c(=O)c2c(-c3ccccc3F)c3c(nc2n(C)c1=O)-c1ccccc1C3O (configuration not stated) | inactive: 75.6%
CC(=O)c1cnc2ncnn2c1C | active: -113%
N#Cc1nc(COc2ccccc2)oc1NCCCn1ccnc1 | inconclusive: -37.1%
Fc1cccc(NC(=S)NCCc2ccccc2)c1 | inactive: 46.3%
O=S1(=O)N=C(N2CCN(Cc3ccc4c(c3)OCO4)CC2)c2ccccc21 | inconclusive: -35.9%
Cc1cc(C)n2nc(NCc3cccc(Br)c3)nc2n1 | inactive: 37.8%
Cc1ccc(S(=O)(=O)Nc2cc(NC(=O)CN3CCOCC3)ccc2Cl)cc1 | inconclusive: -35%
Cc1onc(-c2c(F)cccc2Cl)c1C(=O)Nc1cccc2nsnc12 | inconclusive: -65.9%
Cc1ccccc1-c1noc(-c2ccccc2C(=O)N2CCCC2)n1 | inconclusive: -77.9%
CCOc1ccccc1N(CC(=O)Nc1ccc(S(=O)(=O)N2CCOCC2)cc1)S(=O)(=O)c1ccccc1 | inconclusive: -59.5%
Cc1cc(C)c(C(=O)Nc2ccc(Br)c(C(F)(F)F)c2)c(C)c1 | inconclusive: -53.8%
CCOC(=O)c1cnc(-n2nc(C)cc2C)nc1NC | inactive: 2.12%
COc1ccc(C)cc1NC(=O)CN(c1ccc(F)cc1)S(C)(=O)=O | active: -94.1%
